No constants are given. Whether binding was seen depends on the method and setting. In cells and extracts the contact can be indirect. A result given as binding can be weak or reduced; the word gives no strength.
Experiments:
[1] = target: T1, ribosomal protein S3A (Drosophila melanogaster (endogenous in embryo extract)) (UniProt P55830); experiment: cross-linking
T1 sequence: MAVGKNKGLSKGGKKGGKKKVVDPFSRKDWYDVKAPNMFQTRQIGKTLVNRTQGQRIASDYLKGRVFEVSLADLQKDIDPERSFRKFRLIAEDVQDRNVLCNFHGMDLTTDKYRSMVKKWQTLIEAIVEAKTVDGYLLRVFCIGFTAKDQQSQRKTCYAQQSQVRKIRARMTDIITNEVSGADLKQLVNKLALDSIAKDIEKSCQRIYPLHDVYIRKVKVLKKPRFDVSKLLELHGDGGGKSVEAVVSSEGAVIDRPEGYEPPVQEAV

[2] = target: T2, ribosomal protein S19a (Drosophila melanogaster (endogenous in embryo extract)) (UniProt P39018); experiment: cross-linking
T2 sequence: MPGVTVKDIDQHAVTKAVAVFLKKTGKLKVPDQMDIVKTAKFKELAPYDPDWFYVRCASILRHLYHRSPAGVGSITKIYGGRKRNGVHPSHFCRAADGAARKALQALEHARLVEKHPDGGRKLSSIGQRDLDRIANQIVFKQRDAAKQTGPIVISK

With Vig2 protein the binding [1] was “binds” and the binding [2] was “binds”.

— article doi:10.1101/524314
